In PubChem BioAssay AID540276 (National Center for Advancing Translational Sciences (NCATS), 2011):
“And” between values parts separate entries of the source, which are not always exact repeats. Equal entries are not always repeated. The campaign covered roughly 300,000 compounds. About 5,400 (1.8%) were called active. The inconclusive results got no clear call from the source; some entries with a clear call stand among them for comparison. The call rests on the fitted dose curve; tested in HEK293 cells. Potencies of inconclusive entries are doubtful fits and often do not repeat.

Assay: qHTS for inhibitors of binding or entry into cells for Marburg Virus
Conditions: Marburg virus pseudotyped entry inhibition, cell reporter; activity change, negative = inhibition: at 37.8 µM (top of the series) unless noted
On the % scale 0 is the no-effect control and ±100 the full control effect; potency means the concentration at half of the fitted maximal effect.

Question: For `O=NN(CCCl)C(=O)NCCCl`, which Potency is on record?
Answer: inconclusive: 0.447 µM [inhibitor, full curve]

Question: For `COCCNC(=O)C(c1ccco1)N(C(=O)Cn1nnc2ccccc21)c1cccc(C)c1C` (centres undefined), which Potency is on record?
Answer: inactive

Question: Which “activity change, negative = inhibition” value does the source give for `COc1ccc(N2CCN(C(=O)CSc3c4c(nc5ccc(Cl)cc35)CCCC4)CC2)cc1` here?
Answer: inactive: -12.2% [at 46.1 µM]

Question: For `CCCCN(C(=O)c1c(CC)noc1C)c1c(N)n(CC(C)C)c(=O)[nH]c1=O`, which Potency is on record?
Answer: inconclusive: 0.447 µM [inhibitor, partial curve, poor fit]

Question: Which “activity change, negative = inhibition” value does the source give for `CC12CCC(c3c(C(=O)N4CCOCC4)nn(-c4ccccc4)c31)C2(C)C` (centres undefined) here?
Answer: inactive: -14.5% [at 46.1 µM]

Question: With `O=C(Nc1cccc2ncccc12)c1ccc2c(c1)OCCO2` as the compound, how does the “activity change, negative = inhibition” value read?
Answer: inactive: 3.45%

Question: With `c1ccc(N(c2ccccc2)c2nc(-n3ccnc3)nc(-n3ccnc3)n2)cc1` as the compound, how does the Potency read?
Answer: inconclusive: 10 µM [inhibitor, partial curve]

Question: With `C1=CN2CCC1C(c1ccccc1)C2` (centres undefined) as the compound, how does the Potency read?
Answer: inconclusive: 0.112 µM [activator, full curve, poor fit]

Question: For `CC(=O)Nc1ccc(NC(=O)C/C(C)=N/NC(=O)C(=O)N2CCCC2)cc1`, which “activity change, negative = inhibition” value is on record?
Answer: inactive: 3.46%

Question: With `O=C(NCCCN1CCOCC1)c1ccc(CS(=O)(=O)Cc2ccccc2Cl)o1` as the compound, how does the “activity change, negative = inhibition” value read?
Answer: inactive: 4.72%

Question: Which Potency does the source give for `O=C(Cn1ncc2c3ccccc3n(Cc3ccc(F)cc3)c2c1=O)N1CCN(c2ncccn2)CC1` here?
Answer: inconclusive: 20.6 µM [inhibitor, partial curve, poor fit]

Question: For `CCn1nc(C)c(/C=N/NC(=O)Cn2nccc2C)c1C`, which “activity change, negative = inhibition” value is on record?
Answer: inactive: 15%

Question: Which Potency does the source give for `COc1ccc(CNc2nc3ccccc3n2Cc2ccc(C)cc2)cc1OC` here?
Answer: inconclusive: 14.6 µM [inhibitor, partial curve, poor fit]

Question: For `Cc1ccc(SC(=O)COc2ccccc2C)cc1`, which “activity change, negative = inhibition” value is on record?
Answer: inactive: -4.99%

Question: For `Cc1ccsc1/C=N\NC(=O)Cn1nnc2ccccc21`, which “activity change, negative = inhibition” value is on record?
Answer: inactive: -27.8%

Question: Which Potency does the source give for `Cc1ccc(/C=N/Nc2ccc(F)cc2)s1` here?
Answer: inconclusive: 10 µM [inhibitor, partial curve, poor fit]

Question: With `CCC(=O)NC1=C(C#N)C2(CCCC2)Cc2ccccc21` as the compound, how does the “activity change, negative = inhibition” value read?
Answer: inactive: 7.4%

Question: For `Cc1ccccc1N=C1NC(=O)CS1`, which “activity change, negative = inhibition” value is on record?
Answer: inactive: 0.0647%

Question: For `Cc1cc(/C=N/n2cnnc2)c(C)n1-c1ccc(Cl)cc1`, which Potency is on record?
Answer: inconclusive: 0.282 µM [activator, full curve, poor fit]

Question: For `Cc1nc2ccc(Cl)cc2c(=O)n1-c1ccccc1Cl`, which Potency is on record?
Answer: inconclusive: 0.501 µM [activator, partial curve, poor fit]

Question: For `CN(C)/C=C(\C#N)S(=O)(=O)c1ccc(Cl)cc1`, which Potency is on record?
Answer: inconclusive: 1.12 µM [inhibitor, single point]

Question: Which “activity change, negative = inhibition” value does the source give for `COc1ccc(CNc2ccc(-c3ccccc3OC)nn2)cc1` here?
Answer: inactive: 2.66%

Question: With `NC(=S)Nc1cccc(Cl)c1` as the compound, how does the “activity change, negative = inhibition” value read?
Answer: inactive: 6.03% [at 46.1 µM]

Question: Which Potency does the source give for `Cc1nn(Cc2ccccc2)c(C)c1C(=O)OCC(=O)Nc1cc(S(C)(=O)=O)ccc1Cl` here?
Answer: inconclusive: 14.1 µM [inhibitor, single point]

Question: With `Cc1ccccc1-n1c(SCC(=O)N/N=C/c2ccccc2OCC(=O)O)nc2ccccc2c1=O` as the compound, how does the Potency read?
Answer: inconclusive: 35.5 µM [activator, single point]

Question: For `CC(C)(C)SCCNC(=O)/C=C/c1cccc([N+](=O)[O-])c1`, which Potency is on record?
Answer: inconclusive: 3.16 µM [activator, partial curve, poor fit]

Question: With `CCn1cc(CN2CCC(n3nccc3NC(=O)CCc3ccccc3)CC2)cn1` as the compound, how does the Potency read?
Answer: inconclusive: 6.31 µM [inhibitor, single point]

Question: Which Potency does the source give for `COc1ccc(-c2noc(CCCC(=O)Nc3ccc(C(N)=O)cc3)n2)cc1` here?
Answer: inconclusive: 4.11 µM [inhibitor, partial curve, poor fit]

Question: Which Potency does the source give for `Cc1ccc2nc(CSc3nc(C)cc(C)c3C#N)[nH]c2c1` here?
Answer: inconclusive: 1.16 µM [activator, partial curve, poor fit]

Question: For `Cc1ccc(Cc2c(C)nc3nc(SCC(=O)NCCCN4CCCCCC4)nn3c2C)cc1`, which Potency is on record?
Answer: inconclusive: 25.1 µM [inhibitor, single point]

Question: With `COc1cccc(-n2c(SCC(=O)NCc3cccs3)nc3ccccc3c2=O)c1` as the compound, how does the Potency read?
Answer: inconclusive: 0.0058 µM [inhibitor, full curve, poor fit]

Question: Which Potency does the source give for `Cc1ccc(C(=O)NC2CCCc3ccccc32)cc1[N+](=O)[O-]` (centres undefined) here?
Answer: inconclusive: 10 µM [inhibitor, partial curve]

Question: Which Potency does the source give for `Cc1ccccc1NC(=O)C(=O)N/N=C/c1cccc(Br)c1` here?
Answer: inconclusive: 1.64 µM [activator, partial curve, poor fit]

Question: For `CCc1ccc(CN(Cc2ccco2)c2cnc(S(C)(=O)=O)nc2C(=O)Nc2c(C)cccc2C)cc1`, which Potency is on record?
Answer: inconclusive: 35.5 µM [inhibitor, single point]

Question: For `CCOC(=O)c1ccc(S(=O)(=O)Nc2ccc3cn[nH]c3c2)cc1`, which “activity change, negative = inhibition” value is on record?
Answer: inactive: -26.9%

Question: With `O=C(O)CCCC(=O)OCCCCc1cccs1` as the compound, how does the “activity change, negative = inhibition” value read?
Answer: inactive: 2.36%

Question: For `CCCc1cc(N2CCN(c3ccccc3)CC2)n2cnnc2n1`, which “activity change, negative = inhibition” value is on record?
Answer: inactive: 3.96% [at 46.1 µM]

Question: Which Potency does the source give for `COc1cc(/C=C/C(=O)OCC(=O)NC(=O)NC(C)C)cc(S(=O)(=O)N2CCc3ccccc32)c1OC` here?
Answer: inconclusive: 17.8 µM [inhibitor, single point]

Question: Which Potency does the source give for `CNC(=S)NN=C(C)c1ccc(OC)cc1O` here?
Answer: inconclusive: 1.26 µM [inhibitor, full curve, poor fit]

Question: For `Cn1c(=O)c2c(nc(CN3CCOCC3)n2CC(O)CO)n(C)c1=O` (centres undefined), which Potency is on record?
Answer: inconclusive: 16.4 µM [activator, single point]

Question: Which Potency does the source give for `O=C(Nc1cccc(-c2nc3ncccc3o2)c1)c1sc2ccccc2c1Cl` here?
Answer: inconclusive: 29.1 µM [inhibitor, single point]

Question: Which Potency does the source give for `Cc1cc(-n2c(C)cc(C(=O)COc3ccc4ccc(=O)oc4c3)c2C)no1` here?
Answer: inactive and inconclusive: 35.5 µM [inhibitor, single point]

Question: Which “activity change, negative = inhibition” value does the source give for `OCC1(CCOc2ccccc2)CCN(CCCn2cccn2)CC1` here?
Answer: inactive: 13.2% [at 46.1 µM]

Question: With `CCOc1ccc(Br)cc1S(=O)(=O)Nc1ccc(C(=O)Nc2ccccc2OC)cc1` as the compound, how does the Potency read?
Answer: inconclusive: 0.316 µM [inhibitor, partial curve, poor fit]

Question: With `CC(C)(C)c1cc(NC(=O)c2ccco2)no1` as the compound, how does the Potency read?
Answer: inconclusive: 7.08 µM [inhibitor, partial curve, poor fit]

Question: Which Potency does the source give for `COc1ccc(-c2nc3ccccc3n2CCC(C)C)cc1OC` here?
Answer: inconclusive: 3.55 µM [activator, single point]

Question: Which Potency does the source give for `CC(OC(=O)c1ccc(NC(=O)CC#N)cc1)C(=O)NC(c1ccccc1)c1ccccc1` (centres undefined) here?
Answer: inconclusive: 1.26 µM [inhibitor, partial curve, poor fit]

Question: Which Potency does the source give for `CCOC(=O)c1ccccc1NC(=O)COC(=O)c1cc([N+](=O)[O-])ccc1N1CCOCC1` here?
Answer: inconclusive: 35.5 µM [inhibitor, single point]

Question: Which “activity change, negative = inhibition” value does the source give for `COCCNc1oc(-c2ccccc2Cl)nc1C#N` here?
Answer: inactive: -7.13%

Question: Which Potency does the source give for `Cc1cc(OCC(=O)N2CCOCC2)cc2oc(=O)c3ccccc3c12` here?
Answer: inconclusive: 3.55 µM [activator, full curve, poor fit]

Question: Which Potency does the source give for `CCNC(=O)NC(=O)COC(=O)CCCSc1nc2ccccc2s1` here?
Answer: inconclusive: 12.6 µM [inhibitor, single point]

Question: Which Potency does the source give for `Brc1ccc(CSc2nnc(-c3ccccn3)n2Cc2ccco2)cc1` here?
Answer: inconclusive: 9.2 µM [inhibitor, partial curve, poor fit]

Question: For `COC(=O)c1sccc1NC(=O)/C=C/c1ccc(Cl)cc1`, which Potency is on record?
Answer: inconclusive: 35.5 µM [activator, single point]

Question: For `C=CCNC(=O)c1ccc(CSc2nc3ccccc3s2)cc1`, which Potency is on record?
Answer: inconclusive: 3.55 µM [activator, single point]

Question: With `N#Cc1nc(Cc2cccc3ccccc23)oc1N1CCOCC1` as the compound, how does the “activity change, negative = inhibition” value read?
Answer: inactive: 2.57%

Question: With `Cc1nc2c(c(=O)n1CCC1=CCCCC1)c1nc3ccccc3nc1n2/N=C/c1ccccc1` as the compound, how does the “activity change, negative = inhibition” value read?
Answer: inactive: 26.4%

Question: For `COc1ccccc1-c1ccc(C(=O)O)o1`, which Potency is on record?
Answer: inactive

Question: Which Potency does the source give for `CS(=O)(=O)N1CCC(C(=O)N2CCN(c3cccc(Cl)c3)CC2)CC1` here?
Answer: inconclusive: 35.5 µM [activator, partial curve, poor fit]

Question: With `COc1ccc(N=Cc2c(O)n(CC3CCCO3)c(=O)[nH]c2=O)cc1` (centres undefined) as the compound, how does the Potency read?
Answer: inconclusive: 1.26 µM [inhibitor, partial curve, poor fit]

Question: With `CN1CCc2c1nc1ccccc1c2N=C1CCCN1Cc1ccccc1` as the compound, how does the Potency read?
Answer: inconclusive: 29.1 µM [inhibitor, single point]

Question: Which “activity change, negative = inhibition” value does the source give for `CSc1nnc(-c2cc3c(s2)-c2ccccc2CC3)o1` here?
Answer: inactive: 0%

Question: For `CCOC(=O)c1sc(NC(=O)c2ccc(C)s2)cc1C`, which “activity change, negative = inhibition” value is on record?
Answer: inactive: -18.9%

Question: Which Potency does the source give for `Cc1ccc(CN2CCN(C3CCCC3)C(CCO)C2)s1` (centres undefined) here?
Answer: inconclusive: 6.31 µM [activator, single point]

Question: With `CN(C)S(=O)(=O)c1ccc(C(=O)OCC(=O)Nc2cccnc2Cl)cc1` as the compound, how does the Potency read?
Answer: inconclusive: 1.58 µM [activator, partial curve, poor fit]

Question: Which Potency does the source give for `Cc1ccc(SC(c2ccc(C)cc2)C(Cn2cncn2)C(=O)c2ccccc2)cc1` (centres undefined) here?
Answer: inconclusive: 10 µM [inhibitor, partial curve, poor fit]

Question: For `CCN=C1NN=C(c2c[nH]c3ccccc23)CS1`, which Potency is on record?
Answer: inconclusive: 2.82 µM [activator, partial curve, poor fit]

Question: For `CCn1c(SCC(=O)Nc2nc(-c3ccc(C)cc3)cs2)nnc1-c1ccccc1`, which Potency is on record?
Answer: inconclusive: 20.6 µM [inhibitor, single point]

Question: With `CCOc1cc(C(=O)Nc2cccc(OCC(=O)N3CCOCC3)c2)cc(OCC)c1OCC` as the compound, how does the Potency read?
Answer: inconclusive: 0.891 µM [inhibitor, full curve, poor fit]

Question: Which Potency does the source give for `N#Cc1c(-c2ccc(C(F)(F)F)cc2)cc(-c2ccccc2)[nH]c1=S` here?
Answer: inconclusive: 8.91 µM [inhibitor, partial curve, poor fit]
